# Library screen at single concentrations

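Whole-cell growth test on Mycobacterium tuberculosis, read after 4 days in a medium based on cholesterol and the lipid DPPC; the read-out is not stated. Tested at 500 µM. Direction is inferred from retests: higher values go with more growth inhibition. Of about 18,000 compounds tested this way, about 900 (5%) reached 50% or more in at least one test.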

Results are given as percent effect.
The record does not define 0% and 100%; most values in the screen are far below 50% and negative numbers occur (in some assays of this library far below -100).
Compounds were drawn at random from those tested, without regard to their results.

Result for CC1CNCCN1C1CCN(C)CC1 (stereo not given) was -8.893%.
Result for Cc1ccc(S(=O)(=O)Nc2cccnc2)cc1N(C)C was 15.76%.
Result for CN(CC(N)=O)C(=O)C(C)(C)c1ccc(Cl)cc1 was -9.361%.
Result for O=C(c1ccc(F)cc1)N1C[C@@H]2CCN[C@@H]2C1 was 2.265%.
Result for CC(=O)NCC1CNCCO1 (stereo not given) was -4.796%.
Result for CN(CC(C)(C)S(C)(=O)=O)S(=O)(=O)c1ccccc1Cl was 1.155%.
Result for CC(C)[C@@H]1CN(C(=O)c2ccncc2F)C[C@H]1N(C)C was -9.053%.
Result for CCS(=O)(=O)N(C)c1ccc(F)cc1OC was 18.06%.
Result for CCn1cc(OCCCS(=O)(=O)C(C)C)cn1 was -14.1%.
Result for COC(=O)N1CCN(C(=O)c2ccc(Br)cc2O)CC1 was 14.86%.
Result for CCS(=O)(=O)c1ccc(S(=O)(=O)N2CC[C@H](N)C2)cc1 was 14.82%.
Result for COC(=O)c1cc(NC(C)=O)ccc1N1CCOCC1 was 13.03%.
Result for NC(=O)c1cnn(Cc2ccc3c(c2)CCC3)c1 was 14.14%.
Result for CN(C)c1ccc(NC(=O)NC2CCSCC2)nc1 was -6.987%.
Result for COC(=O)CSc1nnc(-c2ccco2)[nH]1 was -8.324%.
Result for COC(=O)Cc1cccc(NC(=O)CC2CC2)n1 was -28%.
Result for C1CC(CC2COCCN2)C1 (stereo not given) was 0.308%.
Result for CCS(=O)(=O)N1CC(CN)C1 was 2.738%.
Result for COc1cc2c(cc1CN1CCNC(=O)CC1)CCC2 was 2.609%.
Result for CN(C)c1cc(CNC(=O)CCc2ccco2)ccn1 was -0.179%.
Result for CN(C)c1noc(CNS(=O)(=O)c2ccccc2)n1 was 20.25%.
Result for COc1cc(CNCc2ccccn2)ccc1O was -14.58%.
Result for Cc1occc1SCC(=O)NC1CCOCC1 was 5.088%.
Result for NCC1CCN(C(=O)c2ccc(Cl)cc2O)C1 (stereo not given) was 15.1%.
Result for COCC(O)CN(C)Cc1cccc(NC(C)=O)c1 (stereo not given) was -4.851%.
Result for COCCNCCNC(=O)c1cnn(C)c1 was -4.699%.
Result for NC(=O)c1cccnc1-c1ccc(O)cc1 was 4.45%.
Result for Cc1noc(NCc2cccc3cn[nH]c23)n1 was 0.8507%.

For reference, 2 entries once more:

- COCC(O)CN(C)Cc1cccc(NC(C)=O)c1 (stereo not given) : -4.851%
- CC(C)[C@@H]1CN(C(=O)c2ccncc2F)C[C@H]1N(C)C : -9.053%

Data taken from ChEMBL document CHEMBL3988442, “University of Dundee, Small-Polar-MMV Screening Library” (2021).